# The list shows a part of the results. Further columns of the screen follow, without active or inactive calls. The list favours compounds with an active or inconclusive main result. Words in brackets tell the shape of the fitted curve; partial curves, single points and poor fits give uncertain potencies.
# Assay: qHTS Assay for Lipid Storage Modulators in Drosophila S3 Cells;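 for cell number change: cells counted by Cell Tracker Red CMTPX staining in the red channel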
# Settings: BODIPY lipid droplet fluorescence, 18-24 h; for cell number change: measured here: cell count max response, cells fed with added oleic acid
# In short: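 Laser-scanning cytometry quantifies lipid droplet accumulation (500–530 nm total intensity; droplet/cell object ratio) in oleic acid-fed (400 uM added) Drosophila S3 cells treated with a concentration series. 20 uM Triacsin C defined 100% inhibition.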
# [1] = measured here: lipid fluorescence (Fed channel) AC50, cells fed with added oleic acid
# [2] = measured here: cell number channel AC50, cells fed with added oleic acid
Compound,cell number change,AC50 [1],AC50 [2]
Nc1c(C(=O)NCCN2CCOCC2)c2nc3ccccc3nc2n1Cc1ccco1,-5.69%,"0.00517 µM [rising, full curve, poor fit]",–
COc1ccccc1CN1CCN(C(=O)COc2ccc3ccccc3c2)CC1,19.1%,"1.46 µM [rising, partial curve]","6.51 µM [rising, partial curve]"
CC(c1ccccc1)n1cncc1C(=O)N1CCCC1=O (stereo not given),6.28%,"0.116 µM [falling, full curve, poor fit]",–
CN(C)c1ccc(/C=C2\CC3C4CC=C5CC(O)CCC5(C)C4CCC3(C)C2=O)cc1 (stereo not given),-12.4%,"6.51 µM [falling, single point]",–
COc1ccccc1N1CCN(Cc2cccc(OC)c2O)CC1,9.73%,"3.66 µM [rising, full curve]",–
CCCC(C)C(=O)NC1CCSC1=O (stereo not given),-2.38%,"29.1 µM [falling, single point]",–
COc1cc(CN2CCN(C(=O)COc3ccccc3)CC2)cc(OC)c1OC,0.594%,–,–
O=c1[nH]c(=O)n(-c2ccc(F)cc2)c(O)c1C=Nc1ccccc1N1CCCC1,102%,–,–
O=NN1CCCCC1,25.2%,"0.164 µM [rising, full curve, poor fit]",–
CC12CNCC(C)(CNC1)C2O (stereo not given),6.9%,"2.06 µM [rising, single point]",–
Cc1ccc(-n2c(/C=C/c3ccc4c(c3)OCO4)nc3ccccc3c2=O)cc1,47.1%,"1.3 µM [rising, full curve]","1.16 µM [rising, full curve]"
CCOC(=O)C1=C(C)OC(N)=C(C(=O)OCC)C12C(=O)Nc1ccc(Br)cc12 (stereo not given),15.3%,–,–
Fc1ccc(CCNCc2cccc(Cl)c2)cc1,-8.22%,–,–
CCN1CCN(Cc2cccnc2)CC1,–,"0.259 µM [rising, full curve, poor fit]",–
CCOC(=O)c1c(C)n(CC(O)CN2CCOCC2)c2cc(Br)c(OC)cc12 (stereo not given),12.5%,"4.11 µM [rising, full curve, poor fit]",–
O=C(C(=O)N1CCOCC1)c1cn(Cc2ccccc2Cl)c2ccccc12,25.4%,–,–
CN1C(=O)NC(=O)/C(=C/c2ccc([N+](=O)[O-])s2)C1=O,-32.2%,"16.4 µM [falling, partial curve, poor fit]",–
CC(Cc1ccccc1)NC(=O)NC(C)Cc1ccccc1 (stereo not given),69.7%,–,"14.6 µM [rising, partial curve]"
CC(C#N)CCC#N (stereo not given),-25.5%,"0.731 µM [falling, partial curve, poor fit]","0.461 µM [falling, full curve, poor fit]"
Cc1cc(Cl)ccc1OCC(=O)O,-21.4%,"0.231 µM [falling, full curve]","0.0231 µM [falling, full curve]"

# Reprinted from the entries so far (2 entries):
Compound,cell number change,AC50 [1],AC50 [2]
CC(c1ccccc1)n1cncc1C(=O)N1CCCC1=O (stereo not given),6.28%,"0.116 µM [falling, full curve, poor fit]",–
CN(C)c1ccc(/C=C2\CC3C4CC=C5CC(O)CCC5(C)C4CCC3(C)C2=O)cc1 (stereo not given),-12.4%,"6.51 µM [falling, single point]",–

# A draw from above in order of heavy-atom count, falling.
Compound,cell number change,AC50 [1],AC50 [2]
COc1ccccc1CN1CCN(C(=O)COc2ccc3ccccc3c2)CC1,19.1%,"1.46 µM [rising, partial curve]","6.51 µM [rising, partial curve]"
CC(c1ccccc1)n1cncc1C(=O)N1CCCC1=O (stereo not given),6.28%,"0.116 µM [falling, full curve, poor fit]",–
O=NN1CCCCC1,25.2%,"0.164 µM [rising, full curve, poor fit]",–

# Remaining list, next part

Compound,cell number change,AC50 [1],AC50 [2]
Cc1ccccc1NC1=NCCCS1,-34.6%,"5.8 µM [falling, full curve]","4.61 µM [falling, full curve, poor fit]"
Cc1ccc2c(c1)C1CN(C)CCC1N2C(=O)COc1ccc(S(=O)(=O)N2CCOCC2)cc1 (stereo not given),-1.26%,"0.651 µM [falling, single point]",–
O=P(Nc1ccccc1)(Nc1ccccc1)Oc1cccc(Cl)c1,-42.7%,–,"32.6 µM [falling, single point]"
COC(=O)C1=C(c2ccccc2OCc2ccccc2)C[C@@H]2CC[C@H]1N2C(=O)NCCOc1ccccc1,-8.1%,"0.731 µM [falling, full curve, poor fit]","0.58 µM [falling, single point]"
COc1cccc(-n2c(-c3ccoc3)nc3ccccc3c2=O)c1,5.57%,"3.26 µM [rising, partial curve]","2.31 µM [rising, partial curve]"
CN1CCN(C(=O)COc2ccc(N(C)S(=O)(=O)c3ccc(F)cc3)cc2)CC1,-31.7%,–,"0.00651 µM [falling, full curve, poor fit]"
CCCN1C[C@H](CSC)C[C@@H]2c3cccc4[nH]cc(c34)C[C@H]21,–,–,"0.00411 µM [rising, full curve, poor fit]"
Cc1cc(C=C(C#N)C#N)ccc1N1CCCC1,3.28%,"6.51 µM [falling, single point]","0.13 µM [falling, full curve, poor fit]"
CNC(=O)c1cccn(Cc2ccc(C(F)(F)F)cc2)c1=O,–,"6.51 µM [rising, single point]","6.51 µM [rising, single point]"
CCCCc1ccc(C(=O)O)nc1,17.2%,"29.1 µM [rising, single point]",–
CN1C(=O)N(C)C(=O)C2(Cc3ccccc3N3CCOCC32)C1=O (stereo not given),-53.9%,–,"18.4 µM [falling, single point]"
CCOP(=O)(OCC)C(NC(=O)Cc1ccccc1)C(Cl)(Cl)Cl (stereo not given),-20.3%,–,–
CN(CC1COc2ccccc2O1)c1nc(-c2cccnc2)nc2ccccc12 (stereo not given),-15%,"0.58 µM [rising, single point]",–
O=C(CCCOc1ccc(Cl)cc1Cl)N1CCC2(CC1)OCCO2,-1.56%,"29.1 µM [rising, single point]",–
CC(C)C(=O)Nc1ccc(N2CCN(C)CC2)c(F)c1,65.8%,"29.1 µM [rising, single point]","29.1 µM [rising, single point]"
CCOc1ccc(-c2cc(C)[n+](CCO)c(-c3ccc(OCC)cc3)c2)cc1,-35%,"29.1 µM [falling, single point]","18.4 µM [falling, single point]"
CN(CC(=O)Nc1ccc(F)cc1)C(=O)Cn1c(=O)oc2ccccc21,–,–,"16.4 µM [rising, single point]"
CC(=O)Nc1ccccc1OP1(=O)COc2ccccc2OC1,-8.48%,"6.51 µM [falling, single point]","1.3 µM [falling, full curve]"
CNC(=O)Oc1ccc2ncccc2c1,35%,"13 µM [rising, partial curve]","20.6 µM [rising, single point]"
COc1cc(CNCCc2ccc3c(c2)OCO3)cc(OC)c1OC,–,"0.58 µM [falling, single point]",–

Compound,cell number change,AC50 [1],AC50 [2]
CNc1ccccc1,–,–,"1.16 µM [falling, single point]"
Cn1c(=O)oc2cc(S(=O)(=O)N3CCCC3)ccc21,–,–,"3.66 µM [falling, full curve]"
COCCOC(=O)C1=C(N)Oc2c(c(=O)oc3ccccc23)[C@@]12C(=O)Nc1ccccc12,32.6%,"6.51 µM [rising, single point]","2.91 µM [rising, full curve, poor fit]"
OCC1CO1 (stereo not given),-14.2%,–,"1.16 µM [falling, single point]"
C=CCn1c(O)c(C(C)=NCCc2c[nH]c3ccccc23)c(=O)[nH]c1=O,-3.53%,"0.291 µM [rising, full curve]","0.184 µM [rising, full curve]"
C/C(=N\NC(=O)c1ccccc1O)c1c(O)n(C2CCCCC2)c(=O)[nH]c1=O,30.7%,"23.1 µM [rising, single point]","32.6 µM [rising, single point]"
COc1ccc(-n2c(O)c(C(C)=NCc3ccc4c(c3)OCO4)c(=O)[nH]c2=O)cc1,–,"0.259 µM [rising, partial curve, poor fit]","0.0731 µM [rising, full curve, poor fit]"
CCCCN1C(=O)/C(=C/c2ccc(N(C)C)cc2)C(=O)N(Cc2ccco2)C1=O,2.78%,"6.51 µM [falling, partial curve]",–
CCCC(CCC)C(=O)OC[N+](C)(C)CCOC(=O)C(O)(c1ccccc1)C1CCCC1 (stereo not given),-15%,"29.1 µM [falling, single point]",–
COC(=O)C1=C(c2ccc(OC(F)(F)F)cc2)C[C@@H]2CC[C@H]1N2C(=O)NCCOc1ccccc1,-38.3%,"0.00517 µM [rising, full curve, poor fit]","29.1 µM [falling, single point]"
CNC(=O)O/N=C/c1nn(C(=O)C(C)(C)C)cc1Br,-0.381%,"4.11 µM [falling, single point]",–
COc1ccc(C)cc1NS(=O)(=O)c1ccc2c(c1)oc(=O)n2C,–,–,"0.731 µM [rising, full curve, poor fit]"
CCc1ccc(-c2nn(Cc3ccccc3)cc2C=O)cc1,–,–,"0.326 µM [rising, partial curve, poor fit]"
Clc1ccc(N2CCN(Cc3ccccc3Cl)CC2)cc1,-3.89%,–,–
O=c1[nH]c(=S)n(Cc2ccc(F)cc2)c(O)c1/C=N/N1CCCCCC1,-4.35%,"6.51 µM [rising, single point]",–
N#Cc1c(/N=C/c2c(O)n(Cc3ccco3)c(=O)[nH]c2=O)sc2c1CCCC2,-6.03%,–,–
CCN1CCN(c2nc3c(c(=O)[nH]2)CCCC3)CC1,-46.5%,"29.1 µM [falling, single point]","29.1 µM [falling, single point]"
Cc1ccc(-c2nc3ccccc3c(=O)n2-n2cccc2)cc1,-50.4%,"0.206 µM [rising, full curve]","29.1 µM [falling, single point]"
Cc1ccc([N+](=O)[O-])cc1,-3.73%,"0.00461 µM [rising, full curve, poor fit]",–

# Reference: PubChem BioAssay AID2685 (National Center for Advancing Translational Sciences (NCATS), 2010)
